Reference: the supplement of paper PMC10849652
Some of the results follow.

Chains of the proteins cited; added tags and fusions are not shown. Lines headed by an entry give the natural chain unless they say otherwise; changes in a name come on top.
UniProt Q9HCK8: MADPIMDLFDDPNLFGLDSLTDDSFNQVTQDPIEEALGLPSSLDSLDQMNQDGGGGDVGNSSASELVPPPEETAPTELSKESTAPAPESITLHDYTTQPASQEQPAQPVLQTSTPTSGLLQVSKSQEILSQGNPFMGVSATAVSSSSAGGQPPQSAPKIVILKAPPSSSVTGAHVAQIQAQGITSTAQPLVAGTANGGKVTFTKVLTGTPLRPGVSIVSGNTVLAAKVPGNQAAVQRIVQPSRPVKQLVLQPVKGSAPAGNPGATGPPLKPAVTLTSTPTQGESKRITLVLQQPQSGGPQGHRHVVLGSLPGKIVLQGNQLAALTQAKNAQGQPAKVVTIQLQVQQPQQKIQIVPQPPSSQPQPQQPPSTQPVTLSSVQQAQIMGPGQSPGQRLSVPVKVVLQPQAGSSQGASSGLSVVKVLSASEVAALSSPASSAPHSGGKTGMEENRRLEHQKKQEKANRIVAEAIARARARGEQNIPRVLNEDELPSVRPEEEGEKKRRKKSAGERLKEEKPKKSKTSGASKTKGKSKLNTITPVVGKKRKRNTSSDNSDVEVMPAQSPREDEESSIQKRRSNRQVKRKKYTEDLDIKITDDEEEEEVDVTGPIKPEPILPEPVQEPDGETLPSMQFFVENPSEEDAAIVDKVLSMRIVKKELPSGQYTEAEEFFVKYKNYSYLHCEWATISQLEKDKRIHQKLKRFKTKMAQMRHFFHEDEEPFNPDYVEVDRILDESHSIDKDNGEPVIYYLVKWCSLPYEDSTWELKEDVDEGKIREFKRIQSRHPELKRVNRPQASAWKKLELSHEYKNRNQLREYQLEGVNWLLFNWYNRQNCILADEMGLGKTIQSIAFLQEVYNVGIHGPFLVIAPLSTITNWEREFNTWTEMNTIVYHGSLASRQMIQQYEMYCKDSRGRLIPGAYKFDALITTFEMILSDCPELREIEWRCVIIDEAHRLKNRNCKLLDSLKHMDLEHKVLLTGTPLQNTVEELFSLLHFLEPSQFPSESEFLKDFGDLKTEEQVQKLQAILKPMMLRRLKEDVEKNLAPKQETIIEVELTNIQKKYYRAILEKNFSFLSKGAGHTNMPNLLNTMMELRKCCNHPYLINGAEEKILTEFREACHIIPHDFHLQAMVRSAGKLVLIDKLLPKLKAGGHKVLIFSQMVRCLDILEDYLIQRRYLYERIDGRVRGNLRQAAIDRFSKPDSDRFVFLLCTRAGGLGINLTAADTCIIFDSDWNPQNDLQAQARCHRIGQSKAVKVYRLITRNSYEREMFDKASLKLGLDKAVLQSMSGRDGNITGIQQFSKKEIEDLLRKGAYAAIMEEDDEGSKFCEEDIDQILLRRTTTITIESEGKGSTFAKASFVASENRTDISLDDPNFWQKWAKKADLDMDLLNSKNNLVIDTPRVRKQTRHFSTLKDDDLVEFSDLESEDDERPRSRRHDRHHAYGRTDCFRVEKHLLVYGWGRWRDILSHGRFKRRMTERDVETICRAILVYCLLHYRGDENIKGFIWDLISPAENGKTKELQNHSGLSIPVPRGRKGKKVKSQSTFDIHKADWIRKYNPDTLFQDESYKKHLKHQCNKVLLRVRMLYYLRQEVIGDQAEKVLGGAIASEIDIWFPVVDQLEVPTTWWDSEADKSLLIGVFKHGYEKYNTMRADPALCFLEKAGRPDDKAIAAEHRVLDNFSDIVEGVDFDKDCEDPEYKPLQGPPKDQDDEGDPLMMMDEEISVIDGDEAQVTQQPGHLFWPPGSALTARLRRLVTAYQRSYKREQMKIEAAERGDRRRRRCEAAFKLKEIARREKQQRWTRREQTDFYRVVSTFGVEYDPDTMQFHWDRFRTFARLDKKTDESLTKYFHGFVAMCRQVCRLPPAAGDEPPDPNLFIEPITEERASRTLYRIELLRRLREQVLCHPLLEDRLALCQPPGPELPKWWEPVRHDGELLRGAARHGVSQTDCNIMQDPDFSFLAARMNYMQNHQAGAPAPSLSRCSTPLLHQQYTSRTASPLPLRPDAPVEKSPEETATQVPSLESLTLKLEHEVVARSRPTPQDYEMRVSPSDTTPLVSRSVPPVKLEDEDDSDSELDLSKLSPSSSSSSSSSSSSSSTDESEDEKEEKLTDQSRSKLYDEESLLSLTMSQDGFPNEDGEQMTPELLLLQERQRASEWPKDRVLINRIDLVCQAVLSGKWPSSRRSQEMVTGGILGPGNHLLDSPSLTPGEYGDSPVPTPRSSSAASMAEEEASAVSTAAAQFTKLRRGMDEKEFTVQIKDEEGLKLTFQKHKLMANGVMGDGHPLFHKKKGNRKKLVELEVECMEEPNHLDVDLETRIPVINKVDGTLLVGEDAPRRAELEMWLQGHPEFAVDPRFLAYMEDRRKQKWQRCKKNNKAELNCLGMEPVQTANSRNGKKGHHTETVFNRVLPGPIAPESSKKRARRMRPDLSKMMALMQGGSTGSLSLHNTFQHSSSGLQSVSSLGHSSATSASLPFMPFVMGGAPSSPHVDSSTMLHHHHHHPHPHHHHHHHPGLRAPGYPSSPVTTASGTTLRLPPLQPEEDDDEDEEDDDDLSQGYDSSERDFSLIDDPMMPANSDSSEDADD
UniProt P61024, whole entry, looked up: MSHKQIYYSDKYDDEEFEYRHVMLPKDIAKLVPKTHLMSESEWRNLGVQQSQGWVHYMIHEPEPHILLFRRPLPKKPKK
UniProt Q9Y259: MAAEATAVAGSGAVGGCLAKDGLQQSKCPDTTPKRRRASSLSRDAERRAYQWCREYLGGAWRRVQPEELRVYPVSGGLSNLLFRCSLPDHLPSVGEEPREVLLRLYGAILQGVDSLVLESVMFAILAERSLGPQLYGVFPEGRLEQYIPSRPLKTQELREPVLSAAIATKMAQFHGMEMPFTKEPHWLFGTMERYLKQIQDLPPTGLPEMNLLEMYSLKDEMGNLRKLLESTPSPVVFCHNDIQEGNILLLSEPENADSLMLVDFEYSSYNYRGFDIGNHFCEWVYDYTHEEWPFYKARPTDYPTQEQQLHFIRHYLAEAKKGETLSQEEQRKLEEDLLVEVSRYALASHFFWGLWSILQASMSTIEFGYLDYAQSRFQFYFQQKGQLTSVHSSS
UniProt Q7LBR1: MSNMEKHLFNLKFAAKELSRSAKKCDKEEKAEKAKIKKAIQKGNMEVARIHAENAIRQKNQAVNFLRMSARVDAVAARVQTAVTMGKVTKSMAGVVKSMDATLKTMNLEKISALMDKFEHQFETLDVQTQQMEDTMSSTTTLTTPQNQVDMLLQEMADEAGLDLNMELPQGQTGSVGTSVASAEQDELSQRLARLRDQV
UniProt P54105: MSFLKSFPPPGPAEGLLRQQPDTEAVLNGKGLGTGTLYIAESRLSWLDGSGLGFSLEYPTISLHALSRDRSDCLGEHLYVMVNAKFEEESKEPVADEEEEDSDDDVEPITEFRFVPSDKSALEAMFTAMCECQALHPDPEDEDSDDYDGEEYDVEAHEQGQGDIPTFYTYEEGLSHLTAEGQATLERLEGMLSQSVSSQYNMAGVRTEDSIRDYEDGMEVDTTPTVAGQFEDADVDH
UniProt O76031, whole entry, looked up: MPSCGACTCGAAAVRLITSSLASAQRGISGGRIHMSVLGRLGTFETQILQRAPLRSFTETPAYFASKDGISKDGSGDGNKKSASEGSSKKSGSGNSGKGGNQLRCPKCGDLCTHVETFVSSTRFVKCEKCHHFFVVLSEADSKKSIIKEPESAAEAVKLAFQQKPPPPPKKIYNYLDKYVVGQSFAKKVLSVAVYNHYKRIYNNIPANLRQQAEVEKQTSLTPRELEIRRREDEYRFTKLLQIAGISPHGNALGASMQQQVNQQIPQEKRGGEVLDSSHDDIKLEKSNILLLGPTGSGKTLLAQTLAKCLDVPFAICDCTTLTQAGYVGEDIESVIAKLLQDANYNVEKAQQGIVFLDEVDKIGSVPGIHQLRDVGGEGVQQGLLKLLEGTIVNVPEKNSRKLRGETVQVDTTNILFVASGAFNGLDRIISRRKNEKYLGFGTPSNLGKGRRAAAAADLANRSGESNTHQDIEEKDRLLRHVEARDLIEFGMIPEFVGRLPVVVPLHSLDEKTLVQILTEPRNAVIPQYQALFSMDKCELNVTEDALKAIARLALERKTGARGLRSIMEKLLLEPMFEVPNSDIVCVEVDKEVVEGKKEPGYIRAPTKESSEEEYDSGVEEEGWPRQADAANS
UniProt P30622: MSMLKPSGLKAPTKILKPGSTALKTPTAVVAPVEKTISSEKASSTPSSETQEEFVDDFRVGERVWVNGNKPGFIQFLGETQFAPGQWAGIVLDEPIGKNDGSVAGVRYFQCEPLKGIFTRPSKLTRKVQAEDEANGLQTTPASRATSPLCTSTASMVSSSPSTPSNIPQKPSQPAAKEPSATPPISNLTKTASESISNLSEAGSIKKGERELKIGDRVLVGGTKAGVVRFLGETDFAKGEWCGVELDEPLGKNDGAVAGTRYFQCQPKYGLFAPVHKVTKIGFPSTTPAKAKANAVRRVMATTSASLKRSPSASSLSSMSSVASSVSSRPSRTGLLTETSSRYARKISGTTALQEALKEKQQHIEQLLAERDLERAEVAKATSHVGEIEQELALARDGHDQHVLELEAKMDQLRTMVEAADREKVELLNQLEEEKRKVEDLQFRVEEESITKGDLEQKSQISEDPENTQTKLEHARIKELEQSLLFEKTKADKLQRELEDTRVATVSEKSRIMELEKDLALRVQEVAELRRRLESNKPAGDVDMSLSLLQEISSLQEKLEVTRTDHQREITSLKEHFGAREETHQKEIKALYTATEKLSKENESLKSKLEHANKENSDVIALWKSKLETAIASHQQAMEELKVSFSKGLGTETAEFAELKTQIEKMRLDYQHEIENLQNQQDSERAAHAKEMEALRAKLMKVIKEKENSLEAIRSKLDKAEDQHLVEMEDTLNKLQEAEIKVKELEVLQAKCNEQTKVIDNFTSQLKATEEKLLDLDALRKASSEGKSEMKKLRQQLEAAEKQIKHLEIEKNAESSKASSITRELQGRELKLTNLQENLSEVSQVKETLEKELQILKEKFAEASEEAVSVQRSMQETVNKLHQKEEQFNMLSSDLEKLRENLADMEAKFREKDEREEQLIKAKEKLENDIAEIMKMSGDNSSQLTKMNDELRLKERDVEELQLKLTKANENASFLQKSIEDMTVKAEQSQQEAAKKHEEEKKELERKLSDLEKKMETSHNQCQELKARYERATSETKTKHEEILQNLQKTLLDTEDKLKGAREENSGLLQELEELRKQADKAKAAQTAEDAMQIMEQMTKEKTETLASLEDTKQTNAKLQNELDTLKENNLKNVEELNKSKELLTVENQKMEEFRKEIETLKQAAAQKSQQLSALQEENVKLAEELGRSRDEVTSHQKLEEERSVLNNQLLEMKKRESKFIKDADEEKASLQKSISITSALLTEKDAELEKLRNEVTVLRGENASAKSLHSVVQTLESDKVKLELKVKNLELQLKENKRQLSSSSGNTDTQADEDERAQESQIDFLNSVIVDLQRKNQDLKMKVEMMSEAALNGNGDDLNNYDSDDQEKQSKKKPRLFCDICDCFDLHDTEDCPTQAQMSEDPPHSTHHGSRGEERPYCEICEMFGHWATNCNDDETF
UniProt Q9BW66: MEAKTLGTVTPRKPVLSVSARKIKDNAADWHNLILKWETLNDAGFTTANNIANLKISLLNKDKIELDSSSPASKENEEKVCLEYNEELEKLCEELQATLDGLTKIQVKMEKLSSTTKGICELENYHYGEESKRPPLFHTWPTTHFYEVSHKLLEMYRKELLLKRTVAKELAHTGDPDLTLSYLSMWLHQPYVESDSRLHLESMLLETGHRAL
UniProt O75503: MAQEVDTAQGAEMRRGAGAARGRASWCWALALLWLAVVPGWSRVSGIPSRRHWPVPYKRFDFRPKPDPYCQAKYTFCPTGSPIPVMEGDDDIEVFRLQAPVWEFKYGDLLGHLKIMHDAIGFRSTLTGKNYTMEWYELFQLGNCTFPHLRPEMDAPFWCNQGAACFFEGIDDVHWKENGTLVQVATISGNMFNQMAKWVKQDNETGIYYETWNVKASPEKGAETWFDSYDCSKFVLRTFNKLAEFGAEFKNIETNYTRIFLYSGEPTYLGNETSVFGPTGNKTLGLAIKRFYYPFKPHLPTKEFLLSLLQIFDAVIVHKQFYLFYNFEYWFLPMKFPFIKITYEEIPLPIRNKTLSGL
UniProt Q8NFW8: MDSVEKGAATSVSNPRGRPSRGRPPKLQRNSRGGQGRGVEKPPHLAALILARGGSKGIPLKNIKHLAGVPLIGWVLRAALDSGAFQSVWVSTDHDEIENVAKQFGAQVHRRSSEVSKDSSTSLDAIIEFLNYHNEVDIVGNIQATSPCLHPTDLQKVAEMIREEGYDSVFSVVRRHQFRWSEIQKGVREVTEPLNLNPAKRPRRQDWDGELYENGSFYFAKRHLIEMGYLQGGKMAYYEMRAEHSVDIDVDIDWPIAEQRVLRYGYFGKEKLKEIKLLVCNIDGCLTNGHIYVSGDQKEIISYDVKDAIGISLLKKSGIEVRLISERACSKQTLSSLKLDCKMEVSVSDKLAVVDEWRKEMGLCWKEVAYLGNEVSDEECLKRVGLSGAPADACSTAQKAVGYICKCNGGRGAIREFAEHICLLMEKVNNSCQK

Legend:
Test in all cases: log2 fold change, soluble protein after heating vs DMSO (PISA); higher = thermal stabilisation; K562 lysate, 10 uM; active = over 0.2 and 3.5 SD of the protein, either way, in both replicates (recomputed)
[1] = compound: NCC(=O)Nc1ccc(-n2nc(C(F)(F)F)cc2-c2ccc3c(ccc4ccccc43)c2)cc1
How it was run: (§1)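 Following dounce homogenisation of K562 pellets in PBS pH 7.4 with 1 mM MgCl2, crude extract at 1 mg/mL protein was incubated for 30 min with 10 μM compound. Aliquots were then heated for 3 min over 48°C-58°C and pooled, NP-40 was added to 0.5% at 4°C, and soluble protein was recovered as the supernatant at 21,000xg for 90 min. Channel-sum-equalised TMTpro 16plex LC-MS/MS quantified this protein. Each value, from duplicates, is a log-two fold change in thermal stability relative to solvent controls.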

[2] = compound: O=C(CCCCCCC(=O)Nc1ccccc1)NO [vorinostat]
How it was run: as §1

[3] = compound: O=C(O)c1ccc2c(c1)nc(Nc1cccc(Cl)c1)c1ccncc12 [silmitasertib]
How it was run: as §1

[4] = compound: O=C1NC(=O)C(c2cnc3ccccn23)=C1c1cn2c3c(cc(F)cc13)CN(C(=O)N1CCCCC1)CC2
How it was run: as §1

[5] = compound: c1cn2cc(-c3ccc4cn[nH]c4c3)nc(Nc3ccc(N4CCOCC4)cc3)c2n1 [entospletinib]
How it was run: as §1

| Target | log2 fold change [1] | log2 fold change [2] | log2 fold change [3] | log2 fold change [4] | log2 fold change [5] |
| --- | --- | --- | --- | --- | --- |
| CLPP (UniProt Q16740) | inactive: -0.078 | inactive: 0.155 | inactive: 0.009 | inactive: -0.034 | inactive: -0.028 |
| CHD8 (UniProt Q9HCK8) | inactive: 0.085 | inactive: -0.066 | inactive: 0.074 | inactive: 0.039 | inactive: -0.035 |
| CHCHD3 (UniProt Q9NX63) | inactive: 0.041 | inactive: 0.046 | inactive: 0.018 | inactive: 0.007 | inactive: -0.016 |
| CKS1B (UniProt P61024) | inactive: -0.059 | inactive: 0.115 | inactive: -0.004 | inactive: -0.076 | inactive: -0.021 |
| CLINT1 isoform 3 (UniProt Q14677) | inactive: 0 | inactive: 0.16 | inactive: -0.098 | inactive: -0.071 | inactive: 0.007 |
| CHKB (UniProt Q9Y259) | inactive: -0.004 | inactive: 0.072 | inactive: 0.014 | inactive: -0.034 | inactive: -0.014 |
| CIT isoform 4 (UniProt O14578) | inactive: 0.022 | inactive: -0.195 | inactive: -0.015 | inactive: 0.015 | inactive: -0.029 |
| CLPB isoform 2 (UniProt Q9H078) | inactive: 0.075 | active: -0.446 | inactive: 0.062 | inactive: -0.028 | inactive: 0.016 |
| CLEC16A (UniProt Q2KHT3) | inactive: 0.015 | inactive: 0.072 | inactive: -0.003 | inactive: 0.012 | inactive: 0.002 |
| CHMP1B (UniProt Q7LBR1) | inactive: -0.068 | inactive: 0.127 | inactive: 0.027 | inactive: -0.024 | inactive: -0.001 |
| CMBL (UniProt Q96DG6) | inactive: -0.065 | inactive: 0.09 | inactive: 0.042 | inactive: 0.071 | inactive: 0.037 |
| CHAF1B (UniProt Q13112) | inactive: 0.021 | inactive: -0.044 | inactive: -0.008 | inactive: 0.01 | inactive: 0.014 |
| CLNS1A (UniProt P54105) | inactive: -0.026 | inactive: -0.008 | inactive: 0.022 | inactive: 0 | inactive: -0.004 |
| CLPX (UniProt O76031) | inactive: 0.059 | inactive: -0.051 | inactive: 0.016 | inactive: 0.027 | inactive: 0.056 |
| CIAO2A (UniProt Q9H5X1) | inactive: 0.021 | active: 0.368 | inactive: -0.016 | inactive: -0.037 | inactive: 0.009 |
| CKAP2 (UniProt Q8WWK9) | active: 0.434 | inactive: 0.011 | inactive: -0.013 | inactive: -0.044 | inactive: 0.033 |
| CHD6 (UniProt Q8TD26) | inactive: 0.042 | – | – | inactive: 0.064 | inactive: -0.182 |
| CLIP1 isoform 1 (UniProt P30622) | inactive: -0.008 | inactive: 0.092 | inactive: -0.01 | inactive: -0.01 | inactive: -0.009 |
| CHERP (UniProt Q8IWX8) | inactive: -0.014 | inactive: -0.166 | inactive: 0.015 | inactive: -0.048 | inactive: -0.009 |
| CLCN6 isoform 5 (UniProt P51797) | inactive: 0.178 | inactive: 0.07 | inactive: -0.002 | inactive: 0.009 | inactive: 0.034 |
| CLTC (UniProt Q00610) | inactive: 0.033 | inactive: -0.026 | inactive: 0.039 | inactive: 0.031 | inactive: 0.014 |
| CINP isoform 3 (UniProt Q9BW66) | inactive: 0.084 | – | – | inactive: 0.043 | inactive: 0.009 |
| CHCHD7 isoform 4 (UniProt Q9BUK0) | inactive: -0.031 | – | – | inactive: -0.066 | inactive: 0.008 |
| CLN5 (UniProt O75503) | inactive: 0.056 | inactive: 0.062 | inactive: -0.027 | – | inactive: 0.226 |
| CMAS (UniProt Q8NFW8) | inactive: 0.008 | inactive: -0.051 | inactive: 0.003 | inactive: -0.016 | inactive: 0.048 |

Taken from above.
log2 fold change [2] with CIAO2A (UniProt Q9H5X1) reads active: 0.368
log2 fold change [5] with CLPX (UniProt O76031) reads inactive: 0.056
